# Source: article doi:10.1101/2020.11.05.369959
# Protein sequences, listed by entry. Tags and fused reporters are not part of them.
# UniProt Q9C0K0: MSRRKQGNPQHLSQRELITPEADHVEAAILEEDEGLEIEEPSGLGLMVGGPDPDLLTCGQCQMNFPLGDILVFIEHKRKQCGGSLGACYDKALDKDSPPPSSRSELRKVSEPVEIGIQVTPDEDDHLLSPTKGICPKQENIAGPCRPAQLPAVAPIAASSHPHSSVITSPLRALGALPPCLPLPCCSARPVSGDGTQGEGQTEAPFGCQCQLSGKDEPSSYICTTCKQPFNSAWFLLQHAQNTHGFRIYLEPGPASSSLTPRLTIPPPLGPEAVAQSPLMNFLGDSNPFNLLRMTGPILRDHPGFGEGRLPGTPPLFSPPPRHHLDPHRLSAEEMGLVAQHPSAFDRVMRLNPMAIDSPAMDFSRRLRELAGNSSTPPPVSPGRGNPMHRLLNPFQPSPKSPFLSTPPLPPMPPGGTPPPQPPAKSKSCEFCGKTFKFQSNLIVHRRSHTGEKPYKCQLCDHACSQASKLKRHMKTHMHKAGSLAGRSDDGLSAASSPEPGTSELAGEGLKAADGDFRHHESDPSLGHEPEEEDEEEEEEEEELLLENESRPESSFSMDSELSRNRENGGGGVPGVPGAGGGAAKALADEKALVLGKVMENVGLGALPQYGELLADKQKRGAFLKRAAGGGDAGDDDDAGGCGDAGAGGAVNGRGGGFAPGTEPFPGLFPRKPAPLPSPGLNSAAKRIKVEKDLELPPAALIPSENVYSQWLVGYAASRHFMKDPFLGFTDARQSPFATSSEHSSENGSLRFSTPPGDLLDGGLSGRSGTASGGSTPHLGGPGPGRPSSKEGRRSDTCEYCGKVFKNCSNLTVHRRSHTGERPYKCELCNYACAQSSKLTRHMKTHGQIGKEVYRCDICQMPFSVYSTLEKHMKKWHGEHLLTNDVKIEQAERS
# Target: Flag-BCL11b (B-cell lymphoma/leukemia 11B) (UniProt Q9C0K0)
# Test: affinity purification with mass spectrometry
row,binding,Binder
1,binds,"Drosha (protein, UniProt Q9NRR4 1-1374) MMQGNTCHRMSFHPGRGCPRGRGGHGARPSAPSFRPQNLRLLHPQQPPVQYQYEPPSAPSTTFSNSPAPNFLPPRPDFVPFPPPMPPSAQGPLPPCPIRPPFPNHQMRHPFPVPPCFPPMPPPMPCPNNPPVPGAPPGQGTFPFMMPPPSMPHPPPPPVMPQQVNYQYPPGYSHHNFPPPSFNSFQNNPSSFLPSANNSSSPHFRHLPPYPLPKAPSERRSPERLKHYDDHRHRDHSHGRGERHRSLDRRERGRSPDRRRQDSRYRSDYDRGRTPSRHRSYERSRERERERHRHRDNRRSPSLERSYKKEYKRSGRSYGLSVVPEPAGCTPELPGEIIKNTDSWAPPLEIVNHRSPSREKKRARWEEEKDRWSDNQSSGKDKNYTSIKEKEPEETMPDKNEEEEEELLKPVWIRCTHSENYYSSDPMDQVGDSTVVGTSRLRDLYDKFEEELGSRQEKAKAARPPWEPPKTKLDEDLESSSESECESDEDSTCSSSSDSEVFDVIAEIKRKKAHPDRLHDELWYNDPGQMNDGPLCKCSAKARRTGIRHSIYPGEEAIKPCRPMTNNAGRLFHYRITVSPPTNFLTDRPTVIEYDDHEYIFEGFSMFAHAPLTNIPLCKVIRFNIDYTIHFIEEMMPENFCVKGLELFSLFLFRDILELYDWNLKGPLFEDSPPCCPRFHFMPRFVRFLPDGGKEVLSMHQILLYLLRCSKALVPEEEIANMLQWEELEWQKYAEECKGMIVTNPGTKPSSVRIDQLDREQFNPDVITFPIIVHFGIRPAQLSYAGDPQYQKLWKSYVKLRHLLANSPKVKQTDKQKLAQREEALQKIRQKNTMRREVTVELSSQGFWKTGIRSDVCQHAMMLPVLTHHIRYHQCLMHLDKLIGYTFQDRCLLQLAMTHPSHHLNFGMNPDHARNSLSNCGIRQPKYGDRKVHHMHMRKKGINTLINIMSRLGQDDPTPSRINHNERLEFLGDAVVEFLTSVHLYYLFPSLEEGGLATYRTAIVQNQHLAMLAKKLELDRFMLYAHGPDLCRESDLRHAMANCFEALIGAVYLEGSLEEAKQLFGRLLFNDPDLREVWLNYPLHPLQLQEPNTDRQLIETSPVLQKLTEFEEAIGVIFTHVRLLARAFTLRTVGFNHLTLGHNQRMEFLGDSIMQLVATEYLFIHFPDHHEGHLTLLRSSLVNNRTQAKVAEELGMQEYAITNDKTKRPVALRTKTLADLLESFIAALYIDKDLEYVHTFMNVCFFPRLKEFILNQDWNDPKSQLQQCCLTLRTEGKEPDIPLYKTLQTVGPSHARTYTVAVYFKGERIGCGKGPSIQQAEMGAAMDALEKYNFPQMAHQKRFIERKYRQELKEMRWEREHQEREPDETEDIKK"
2,binds,"SMG7 (protein, UniProt Q92540 1-1137) MSLQSAQYLRQAEVLKADMTDSKLGPAEVWTSRQALQDLYQKMLVTDLEYALDKKVEQDLWNHAFKNQITTLQGQAKNRANPNRSEVQANLSLFLEAASGFYTQLLQELCTVFNVDLPCRVKSSQLGIISNKQTHTSAIVKPQSSSCSYICQHCLVHLGDIARYRNQTSQAESYYRHAAQLVPSNGQPYNQLAILASSKGDHLTTIFYYCRSIAVKFPFPAASTNLQKALSKALESRDEVKTKWGVSDFIKAFIKFHGHVYLSKSLEKLSPLREKLEEQFKRLLFQKAFNSQQLVHVTVINLFQLHHLRDFSNETEQHTYSQDEQLCWTQLLALFMSFLGILCKCPLQNESQEESYNAYPLPAVKVSMDWLRLRPRVFQEAVVDERQYIWPWLISLLNSFHPHEEDLSSISATPLPEEFELQGFLALRPSFRNLDFSKGHQGITGDKEGQQRRIRQQRLISIGKWIADNQPRLIQCENEVGKLLFITEIPELILEDPSEAKENLILQETSVIESLAADGSPGLKSVLSTSRNLSNNCDTGEKPVVTFKENIKTREVNRDQGRSFPPKEVRRDYSKGITVTKNDGKKDNNKRKTETKKCTLEKLQETGKQNVAVQVKSQTELRKTPVSEARKTPVTQTPTQASNSQFIPIHHPGAFPPLPSRPGFPPPTYVIPPPVAFSMGSGYTFPAGVSVPGTFLQPTAHSPAGNQVQAGKQSHIPYSQQRPSGPGPMNQGPQQSQPPSQQPLTSLPAQPTAQSTSQLQVQALTQQQQSPTKAVPALGKSPPHHSGFQQYQQADASKQLWNPPQVQGPLGKIMPVKQPYYLQTQDPIKLFEPSLQPPVMQQQPLEKKMKPFPMEPYNHNPSEVKVPEFYWDSSYSMADNRSVMAQQANIDRRGKRSPGVFRPEQDPVPRMPFEKSLLEKPSELMSHSSSFLSLTGFSLNQERYPNNSMFNEVYGKNLTSSSKAELSPSMAPQETSLYSLFEGTPWSPSLPASSDHSTPASQSPHSSNPSSLPSSPPTHNHNSVPFSNFGPIGTPDNRDRRTADRWKTDKPAMGGFGIDYLSATSSSESSWHQASTPSGTWTGHGPSMEDSSAVLMESLKSIWSSSMMHPGPSALEQLLMQQKQKQQRGQGTMNPPH"
3,binds,"UPF1 (protein, UniProt Q92900 1-1129) MSVEAYGPSSQTLTFLDTEEAELLGADTQGSEFEFTDFTLPSQTQTPPGGPGGPGGGGAGGPGGAGAGAAAGQLDAQVGPEGILQNGAVDDSVAKTSQLLAELNFEEDEEDTYYTKDLPIHACSYCGIHDPACVVYCNTSKKWFCNGRGNTSGSHIVNHLVRAKCKEVTLHKDGPLGETVLECYNCGCRNVFLLGFIPAKADSVVVLLCRQPCASQSSLKDINWDSSQWQPLIQDRCFLSWLVKIPSEQEQLRARQITAQQINKLEELWKENPSATLEDLEKPGVDEEPQHVLLRYEDAYQYQNIFGPLVKLEADYDKKLKESQTQDNITVRWDLGLNKKRIAYFTLPKTDSGNEDLVIIWLRDMRLMQGDEICLRYKGDLAPLWKGIGHVIKVPDNYGDEIAIELRSSVGAPVEVTHNFQVDFVWKSTSFDRMQSALKTFAVDETSVSGYIYHKLLGHEVEDVIIKCQLPKRFTAQGLPDLNHSQVYAVKTVLQRPLSLIQGPPGTGKTVTSATIVYHLARQGNGPVLVCAPSNIAVDQLTEKIHQTGLKVVRLCAKSREAIDSPVSFLALHNQIRNMDSMPELQKLQQLKDETGELSSADEKRYRALKRTAERELLMNADVICCTCVGAGDPRLAKMQFRSILIDESTQATEPECMVPVVLGAKQLILVGDHCQLGPVVMCKKAAKAGLSQSLFERLVVLGIRPIRLQVQYRMHPALSAFPSNIFYEGSLQNGVTAADRVKKGFDFQWPQPDKPMFFYVTQGQEEIASSGTSYLNRTEAANVEKITTKLLKAGAKPDQIGIITPYEGQRSYLVQYMQFSGSLHTKLYQEVEIASVDAFQGREKDFIILSCVRANEHQGIGFLNDPRRLNVALTRARYGVIIVGNPKALSKQPLWNHLLNYYKEQKVLVEGPLNNLRESLMQFSKPRKLVNTINPGARFMTTAMYDAREAIIPGSVYDRSSQGRPSSMYFQTHDQIGMISAGPSHVAAMNIPIPFNLVMPPMPPPGYFGQANGPAAGRGTPKGKTGRGGRQKNRFGLPGPSQTNLPNSQASQDVASQPFSQGALTQGYISMSQPSQMSQPGLSQPELSQDSYLGDEFKSQIDVALSQDSTYQGERAYQHGGVTGLSQY"
4,binds,"CDC45 (protein, UniProt O75419 1-566) MFVSDFRKEFYEVVQSQRVLLFVASDVDALCACKILQALFQCDHVQYTLVPVSGWQELETAFLEHKEQFHYFILINCGANVDLLDILQPDEDTIFFVCDTHRPVNVVNVYNDTQIKLLIKQDDDLEVPAYEDIFRDEEEDEEHSGNDSDGSEPSEKRTRLEEEIVEQTMRRRQRREWEARRRDILFDYEQYEYHGTSSAMVMFELAWMLSKDLNDMLWWAIVGLTDQWVQDKITQMKYVTDVGVLQRHVSRHNHRNEDEENTLSVDCTRISFEYDLRLVLYQHWSLHDSLCNTSYTAARFKLWSVHGQKRLQEFLADMGLPLKQVKQKFQAMDISLKENLREMIEESANKFGMKDMRVQTFSIHFGFKHKFLASDVVFATMSLMESPEKDGSGTDHFIQALDSLSRSNLDKLYHGLELAKKQLRATQQTIASCLCTNLVISQGPFLYCSLMEGTPDVMLFSRPASLSLLSKHLLKSFVCSTKNRRCKLLPLVMAAPLSMEHGTVTVVGIPPETDSSDRKNFFGRAFEKAAESTSSRMLHNHFDLSVIELKAEDRSKFLDALISLLS"

# Results are given in words; binding and its absence hold for the method and conditions named. In cells and extracts the contact can be indirect. Here binding means that the protein was enriched with, or labelled near, the bait; the list need not be complete.
